# Measured values as given in PMC7862700.
# The list shows a part of the results, in another mix than the full data. For part of these data: At the low end of the ranking the order means little. This is one part of the list. For part of these data: Construct or isoform of the protein are uncertain.
# How the values were obtained:
# Assay in all cases: DAPPL (digital affinity profiling via proximity ligation, sequencing)
# Details in all cases: 10 mM Tris-HCl pH 7.5, 50 mM NaCl, 1 mM DTT, 4% glycerol, room temperature, 30 min; GST-TFs on glutathione beads, 16-mer random dsDNA library, 0.1% …; high values mean tight binding; double strand, one strand shown; scale: fold enrichment (6-mer frequency, TF over GST control)
# GABPA = biological target: T1, GABPA (UniProt Q06546)
# T1 sequence: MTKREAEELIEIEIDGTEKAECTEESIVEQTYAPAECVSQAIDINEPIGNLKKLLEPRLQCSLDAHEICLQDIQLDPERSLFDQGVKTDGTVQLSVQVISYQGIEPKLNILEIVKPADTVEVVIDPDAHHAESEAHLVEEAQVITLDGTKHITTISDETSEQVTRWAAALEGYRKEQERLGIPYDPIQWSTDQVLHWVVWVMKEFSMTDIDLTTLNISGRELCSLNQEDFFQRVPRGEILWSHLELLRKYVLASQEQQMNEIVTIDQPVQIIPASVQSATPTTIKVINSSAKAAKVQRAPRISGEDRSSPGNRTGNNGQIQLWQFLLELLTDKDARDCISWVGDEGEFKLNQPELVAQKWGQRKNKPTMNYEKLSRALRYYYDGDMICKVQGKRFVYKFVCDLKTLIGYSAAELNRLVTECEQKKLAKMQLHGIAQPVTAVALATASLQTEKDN
# ETS1 = biological target: T2, ETS1 (UniProt P14921)
# T2 sequence: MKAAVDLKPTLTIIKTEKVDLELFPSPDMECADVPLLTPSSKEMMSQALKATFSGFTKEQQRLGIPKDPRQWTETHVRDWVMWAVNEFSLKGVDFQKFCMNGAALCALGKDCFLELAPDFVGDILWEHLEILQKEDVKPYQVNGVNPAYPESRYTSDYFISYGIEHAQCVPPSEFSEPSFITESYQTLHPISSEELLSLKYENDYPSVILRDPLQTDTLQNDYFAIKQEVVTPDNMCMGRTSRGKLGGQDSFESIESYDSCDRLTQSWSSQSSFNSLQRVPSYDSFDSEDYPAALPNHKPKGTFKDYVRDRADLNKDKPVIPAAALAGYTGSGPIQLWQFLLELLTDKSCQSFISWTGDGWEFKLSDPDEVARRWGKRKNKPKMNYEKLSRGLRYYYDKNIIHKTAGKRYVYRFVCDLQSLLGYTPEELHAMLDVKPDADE
# SPDEF = biological target: T3, SPDEF (UniProt O95238)
# T3 sequence: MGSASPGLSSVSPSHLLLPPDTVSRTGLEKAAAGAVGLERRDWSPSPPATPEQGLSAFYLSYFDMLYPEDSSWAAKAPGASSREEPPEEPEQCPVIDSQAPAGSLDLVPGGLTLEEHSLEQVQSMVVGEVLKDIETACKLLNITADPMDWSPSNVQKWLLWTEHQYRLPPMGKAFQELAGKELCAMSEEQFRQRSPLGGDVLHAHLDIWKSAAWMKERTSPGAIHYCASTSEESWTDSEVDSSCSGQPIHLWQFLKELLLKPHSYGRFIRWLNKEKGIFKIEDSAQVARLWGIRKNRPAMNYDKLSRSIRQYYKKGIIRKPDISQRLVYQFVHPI
Sequence,binding signal (GABPA),binding signal (ETS1),binding signal (SPDEF)
AGGTGT,0.81,0.944,0.805
CTAGGA,0.899,0.87,0.968
TTCGGG,0.842,0.955,0.849
GCCGTC,0.959,0.996,1.03
AGGCCC,0.884,0.905,0.953
AGTTAC,0.904,0.96,0.96
GCCTGT,0.858,1.05,0.914
GATTAG,0.925,0.92,0.874
GAAGAT,0.911,0.839,0.83
CTATAG,1.11,1.01,0.995
CTTGAG,0.947,0.928,0.94
CACCGC,1.06,0.974,0.883
TGAAGC,0.997,1.03,0.994
AGAAAC,0.943,1.02,0.924
GTGCAC,0.99,0.894,0.857
CATAGC,1.02,0.964,0.918
CCCTAG,0.926,0.96,0.96
CGAACG,0.929,0.985,0.975
AGATTA,0.991,1.04,1.05
GCGAAC,0.927,0.977,0.838
TTTAAT,1.29,1.21,1.17
GTTCGT,0.997,0.97,0.873
TTCTAC,1.59,1.5,1.5
TGTCGC,0.975,0.985,0.915
TTTAGA,0.957,0.999,0.952
AATGTG,0.996,0.929,0.986
AGAATC,0.916,0.964,0.936
GCTCGA,1.15,1.26,0.978

Sequence,binding signal (GABPA),binding signal (ETS1),binding signal (SPDEF)
CCAGCT,0.9,0.939,0.851
CGAACT,1.24,1.19,0.944
GTAGCG,0.951,0.932,0.889
GCTTGG,1.12,1.1,1.08
CGTTTA,1.13,1.09,1.14
GTGCGC,0.901,1.05,0.871
AGTTTG,0.99,0.9,0.871
CATTGG,1,0.899,0.878
GTTGCC,0.928,0.829,0.978
TAAGGA,0.842,0.917,0.931
TTTAAG,1.38,1.33,1.44
TGGGCA,0.957,0.956,0.981
CATTTG,1.28,1.26,1.25
TAGGGC,1.01,0.973,1.01
GTGTTG,0.865,0.879,1.01
GTTCCT,1.64,1.79,1.74
GCGGCA,0.911,0.86,0.806
ACTGTC,0.959,0.957,0.974
GACTAT,0.906,0.926,0.905
CGGACC,0.764,0.838,0.997
GTGACT,0.992,0.898,0.977
GTTGCG,0.87,0.939,0.925
GCTGCT,1.24,1.11,1.21
GCGAAG,0.914,0.823,0.785
GTGGAA,0.977,0.901,0.886
CGACGG,1.09,0.907,0.907
TAATGG,1.24,1.32,1.22

# For convenience, part of the list above.
Sequence,binding signal (GABPA),binding signal (ETS1),binding signal (SPDEF)
TTTAAG,1.38,1.33,1.44
TGGGCA,0.957,0.956,0.981
CATTTG,1.28,1.26,1.25
TAGGGC,1.01,0.973,1.01
GTGTTG,0.865,0.879,1.01
GTTCCT,1.64,1.79,1.74
GCGGCA,0.911,0.86,0.806
ACTGTC,0.959,0.957,0.974
GACTAT,0.906,0.926,0.905
